Measurements published in the M2OR odorant receptor database.
Only a part is listed here, and it is no random draw. The calls were merged from several studies; some rest on single wells. The list shows a part of the results.

Key:
Conditions in all cases: stereoisomer not certain
O5AL1 = system: T1, O5AL1
T1 sequence (whole entry): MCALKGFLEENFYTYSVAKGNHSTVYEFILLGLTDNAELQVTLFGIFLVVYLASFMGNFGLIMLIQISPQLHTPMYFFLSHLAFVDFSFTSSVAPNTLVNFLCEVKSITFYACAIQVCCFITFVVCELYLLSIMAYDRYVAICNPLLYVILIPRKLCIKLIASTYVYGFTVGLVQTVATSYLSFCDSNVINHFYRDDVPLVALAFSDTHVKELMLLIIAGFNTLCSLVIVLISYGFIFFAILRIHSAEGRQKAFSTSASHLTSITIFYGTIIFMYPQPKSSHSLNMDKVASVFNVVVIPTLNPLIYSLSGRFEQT
How it was run: (§1)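 Each receptor–molecule pair is labelled responsive or non-responsive (inactive) according to whether the original authors judged the measured signal statistically different from baseline. The data were taken from the main text and supplementary material of published papers and checked for typos and inconsistencies. Assay methods differed by source, with transient luciferase assays in mammalian cell lines being common.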

O5AP2 = system: T2, O5AP2
T2 sequence (whole entry): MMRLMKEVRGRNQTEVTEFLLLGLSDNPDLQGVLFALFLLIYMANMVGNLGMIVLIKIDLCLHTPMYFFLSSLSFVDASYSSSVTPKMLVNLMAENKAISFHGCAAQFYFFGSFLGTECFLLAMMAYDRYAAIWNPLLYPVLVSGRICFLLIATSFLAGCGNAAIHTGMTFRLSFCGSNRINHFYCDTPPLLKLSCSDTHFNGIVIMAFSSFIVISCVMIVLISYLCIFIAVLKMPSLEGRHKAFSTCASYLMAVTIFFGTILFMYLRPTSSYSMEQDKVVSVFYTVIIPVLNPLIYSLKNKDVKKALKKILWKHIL
How it was run: as §1

O5AU1 = system: T3, O5AU1
T3 sequence (whole entry): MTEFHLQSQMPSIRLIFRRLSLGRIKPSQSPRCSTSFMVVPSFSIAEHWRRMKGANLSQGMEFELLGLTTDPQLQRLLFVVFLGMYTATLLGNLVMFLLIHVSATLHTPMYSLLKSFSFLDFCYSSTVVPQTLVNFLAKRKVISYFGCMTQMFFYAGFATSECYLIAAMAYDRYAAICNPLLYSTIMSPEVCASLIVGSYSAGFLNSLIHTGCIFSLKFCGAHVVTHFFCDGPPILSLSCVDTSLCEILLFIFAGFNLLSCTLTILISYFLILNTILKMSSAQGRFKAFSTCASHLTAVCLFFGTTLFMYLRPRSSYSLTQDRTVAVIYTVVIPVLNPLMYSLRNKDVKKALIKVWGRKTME
How it was run: as §1

O5H14 = system: T4, O5H14
T4 sequence (whole entry): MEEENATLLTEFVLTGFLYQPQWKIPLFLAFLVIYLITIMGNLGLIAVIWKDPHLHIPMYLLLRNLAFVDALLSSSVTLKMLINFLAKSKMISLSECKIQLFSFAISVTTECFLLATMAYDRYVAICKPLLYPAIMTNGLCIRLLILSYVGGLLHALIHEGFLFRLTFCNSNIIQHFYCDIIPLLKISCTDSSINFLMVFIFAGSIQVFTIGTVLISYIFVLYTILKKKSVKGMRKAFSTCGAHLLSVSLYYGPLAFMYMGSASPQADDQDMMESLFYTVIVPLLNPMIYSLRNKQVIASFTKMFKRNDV
How it was run: as §1

O6C68 = system: T5, O6C68
T5 sequence (whole entry): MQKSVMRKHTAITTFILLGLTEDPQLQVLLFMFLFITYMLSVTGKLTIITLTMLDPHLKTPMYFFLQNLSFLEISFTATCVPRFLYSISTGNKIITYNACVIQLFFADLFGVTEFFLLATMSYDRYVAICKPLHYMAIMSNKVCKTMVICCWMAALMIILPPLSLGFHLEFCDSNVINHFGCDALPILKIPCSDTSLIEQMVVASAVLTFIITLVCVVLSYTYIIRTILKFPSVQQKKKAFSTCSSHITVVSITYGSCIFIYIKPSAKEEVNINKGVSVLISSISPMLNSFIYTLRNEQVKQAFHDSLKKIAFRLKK
How it was run: as §1

O6C70 = system: T6, O6C70
T6 sequence (whole entry): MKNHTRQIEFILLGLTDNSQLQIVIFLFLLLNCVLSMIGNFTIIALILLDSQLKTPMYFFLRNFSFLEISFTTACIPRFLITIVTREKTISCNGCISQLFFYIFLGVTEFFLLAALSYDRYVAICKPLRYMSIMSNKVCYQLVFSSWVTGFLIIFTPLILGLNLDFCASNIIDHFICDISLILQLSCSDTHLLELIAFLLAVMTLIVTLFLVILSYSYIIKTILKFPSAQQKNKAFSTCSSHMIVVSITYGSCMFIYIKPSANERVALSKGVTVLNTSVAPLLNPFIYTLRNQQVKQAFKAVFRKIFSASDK
How it was run: as §1

O7E24 = system: T7, O7E24
T7 sequence (whole entry): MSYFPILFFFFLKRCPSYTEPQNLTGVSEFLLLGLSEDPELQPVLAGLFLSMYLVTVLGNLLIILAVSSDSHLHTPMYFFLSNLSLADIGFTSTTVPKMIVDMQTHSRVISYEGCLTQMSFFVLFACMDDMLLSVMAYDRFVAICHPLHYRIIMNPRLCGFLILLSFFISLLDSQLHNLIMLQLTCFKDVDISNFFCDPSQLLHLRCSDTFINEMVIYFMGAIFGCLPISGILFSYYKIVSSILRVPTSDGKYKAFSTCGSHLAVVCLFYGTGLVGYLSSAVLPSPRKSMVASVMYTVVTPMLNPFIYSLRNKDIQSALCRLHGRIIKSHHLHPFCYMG
How it was run: as §1

OR10A3 (Homo sapiens) = biological target: T8, OR10A3 (Homo sapiens) (UniProt P58181)
T8 sequence (whole entry): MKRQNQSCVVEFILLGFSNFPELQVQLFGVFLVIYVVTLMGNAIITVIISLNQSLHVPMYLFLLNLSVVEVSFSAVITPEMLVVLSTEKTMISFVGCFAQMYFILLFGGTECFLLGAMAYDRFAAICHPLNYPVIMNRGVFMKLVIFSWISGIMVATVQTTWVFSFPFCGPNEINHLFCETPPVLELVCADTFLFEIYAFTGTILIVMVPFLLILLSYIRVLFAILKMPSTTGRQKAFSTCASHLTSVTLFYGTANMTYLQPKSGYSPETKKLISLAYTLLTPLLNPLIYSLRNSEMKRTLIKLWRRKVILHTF
How it was run: as §1

Measured: odorant receptor agonist call

CCCC(=O)O
active: O5AL1
inactive: all other assays above

CCCCCCCC=O
inactive: all assays above

CC(C)C=O
inactive: all assays above

CCCCCC(C)=O
not listed: O6C68
inactive: all other assays above

CC1=NC(C)SC1C (stereo not drawn)
not listed: O6C68
inactive: all other assays above

CC(C)=CCCC(C)=CC=O
active: O6C68
inactive: all other assays above

c1cnccn1
inactive: all assays above

CC(=O)c1ccccc1
not listed: O6C68
inactive: all other assays above

COC(=O)c1ccccc1
not listed: O6C68
inactive: all other assays above

CC(=O)OCC=C(C)CCC=C(C)C
active: O6C68
inactive: all other assays above

COC(=O)c1ccccc1O
inactive: all assays above

COc1cc(C)ccc1O
inactive: all assays above

CCCCO
inactive: all assays above

CC12C=CCC1C1CCC3=CC(=O)CCC3(C)C1CC2 (stereo not drawn)
inactive: all assays above

CCCCCCCCCCC=O
inactive: all assays above

CCCCCCCCCC=O
inactive: all assays above

C=CCc1ccc(OC)c(OC)c1
inactive: all assays above

CC1=CCC(C(C)(C)O)CC1 (stereo not drawn)
inactive: all assays above

C=C(C)C1CCC2=CC(=O)CC(C)C2(C)C1 (stereo not drawn)
inactive: O6C68

C=CC(C)(O)CCC=C(C)C (stereo not drawn)
inactive: all assays above

CC=Cc1ccc(O)c(OC)c1
active: O6C68
inactive: all other assays above

C=CCSCC=C
inactive: all assays above

CC(C)(O)CCCC1=CCC(C=O)CC1 (stereo not drawn)
inactive: O6C68

CCCCCCCOC(C)=O
inactive: all assays above

CC(C)(C)c1ccc(CCC=O)cc1
inactive: all assays above

O=CCc1ccccc1
active: O6C68
inactive: all other assays above

CCCCCC(=O)O
inactive: all assays above
